Primary screen of a compound library

By UniProt entry, the sequences of proteins in these tests, tags left out.
UniProt E9BF75, entry or part of it: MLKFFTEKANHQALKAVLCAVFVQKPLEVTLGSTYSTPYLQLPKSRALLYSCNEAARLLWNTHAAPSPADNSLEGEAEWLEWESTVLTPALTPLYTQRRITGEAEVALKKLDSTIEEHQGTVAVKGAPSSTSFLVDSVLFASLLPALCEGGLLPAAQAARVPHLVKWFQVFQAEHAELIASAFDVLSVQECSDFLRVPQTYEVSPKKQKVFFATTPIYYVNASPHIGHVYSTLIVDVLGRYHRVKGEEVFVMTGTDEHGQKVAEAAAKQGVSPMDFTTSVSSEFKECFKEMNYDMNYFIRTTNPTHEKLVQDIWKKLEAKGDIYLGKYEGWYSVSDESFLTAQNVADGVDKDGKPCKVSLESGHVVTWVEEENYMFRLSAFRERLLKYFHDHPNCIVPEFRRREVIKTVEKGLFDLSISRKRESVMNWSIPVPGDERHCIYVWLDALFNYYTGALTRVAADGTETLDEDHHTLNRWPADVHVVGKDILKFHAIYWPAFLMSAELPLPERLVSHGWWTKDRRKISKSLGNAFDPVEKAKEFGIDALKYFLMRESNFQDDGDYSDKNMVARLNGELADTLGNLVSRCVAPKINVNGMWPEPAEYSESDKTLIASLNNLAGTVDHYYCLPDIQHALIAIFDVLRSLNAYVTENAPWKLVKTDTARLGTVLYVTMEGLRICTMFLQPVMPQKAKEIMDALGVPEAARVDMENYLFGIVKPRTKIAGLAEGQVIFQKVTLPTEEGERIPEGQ

Data taken from ChEMBL document CHEMBL3988442, “University of Dundee, Small-Polar-MMV Screening Library” (2021).

Results are percentages, as filed. The controls that fix the scale are not given in the record; negative values are as filed. Compounds were drawn at random from those tested, without regard to their results. A dash means the value is not listed here; it may have been measured.

Mtb heat-shock: 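Assay on Mycobacterium tuberculosis, filed only as a heat shock assay from Cornell; the read-out is not stated. The concentration is filed as 10 mM, unlikely as a test dose, so the dose is not known. The record gives no direction; compounds that gave an IC50 in retests scored well above the rest, so higher reads as stronger inhibition. Size under these conditions: about 69,000 compounds, about 930 of them at 50% or above in at least one test.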
LdMetRS: 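Primary screen of methionyl-tRNA synthetase; the read-out is not stated. Target: Methionyl-tRNA synthetase (putative), Leishmania donovani (UniProt E9BF75). The test concentration is not given. The values are filed as inhibition. Size under these conditions: about 68,000 compounds, about 24 of them at 50% or above in at least one test.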
Mtb growth Cornell: 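Whole-cell assay for inhibitors of Mycobacterium tuberculosis growth, labelled Cornell in the record; the read-out is not stated. The concentration is filed as 10 mM, unlikely as a test dose, so the dose is not known. The record gives no direction; compounds strong in two other growth screens of this library score well above the rest, so higher reads as stronger inhibition. Size under these conditions: about 53,000 compounds, about 900 of them at 50% or above in at least one test.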

{"smiles": "Cc1ccc(CNC(=O)C2CCNC(=O)C2)c(OCCC(C)C)c1", "stereo": "centres undefined", "Mtb heat-shock": -24.1, "LdMetRS": 23.21, "Mtb growth Cornell": 2.904}
{"smiles": "CC(=O)NCC(=O)N1Cc2nccn2CC(Cn2cccn2)C1", "stereo": "centres undefined", "Mtb heat-shock": -0.8406, "LdMetRS": 17.85, "Mtb growth Cornell": 8.126}
{"smiles": "CC(C)C(NC(=O)c1ccccc1F)C(=O)Nc1cnn(C)c1", "stereo": "centres undefined", "Mtb heat-shock": -15.77, "LdMetRS": 8.011}
{"smiles": "CCC1=N[C@@]2(CC[C@@H]3CN(CC4CC4)C[C@@H]32)C(=O)N1C", "LdMetRS": 18.52}
{"smiles": "CCN1C(=O)CCC12CCCN(Cc1nccs1)CC2", "stereo": "centres undefined", "LdMetRS": 18.47}
{"smiles": "O=C(CSCc1ccccn1)NCC1CCN(C2CC2)C1", "stereo": "centres undefined", "Mtb heat-shock": 10.96, "LdMetRS": 7.379, "Mtb growth Cornell": -7.319}
{"smiles": "CN(C(=O)c1cccc(OCC(F)F)n1)c1ccc2c(c1)CCO2", "Mtb heat-shock": -16.29, "LdMetRS": -4.144}
{"smiles": "CN(CCC1CCOCC1)C(=O)C1CCC(=O)N(Cc2ccccn2)C1", "stereo": "centres undefined", "Mtb heat-shock": -26.49, "LdMetRS": -0.3436}
{"smiles": "CN(Cc1ccon1)c1nc(-c2ccccn2)nc2c1CCNCC2", "Mtb heat-shock": 15.51, "LdMetRS": 6.989, "Mtb growth Cornell": 16.52}
{"smiles": "O=C(c1cncs1)N1CCC(Cc2cnc3[nH]ccc3c2)CC1", "Mtb heat-shock": -24.45, "LdMetRS": 8.333, "Mtb growth Cornell": -34.03}
{"smiles": "[H][C@@]12CCCCN(C)[C@]1([H])[C@@H](c1ccccc1)CCN2C(=O)c1snnc1C", "Mtb heat-shock": 8.501, "Mtb growth Cornell": -3.011}
{"smiles": "COCc1cc(NCCc2ccc(F)cc2)n2nccc2n1", "Mtb heat-shock": 0.7737, "LdMetRS": 11.33, "Mtb growth Cornell": 6.976}
{"smiles": "COc1cc(C2Nc3cc(Cl)ccc3C3=NCCN32)cc(OC)c1OC", "stereo": "centres undefined", "Mtb heat-shock": 16.49, "LdMetRS": 11.65, "Mtb growth Cornell": -27.36}
{"smiles": "Cc1nc(C2NC3(CCCC3)C(=O)N2CC2CC2)cs1", "stereo": "centres undefined", "Mtb heat-shock": 2.504, "LdMetRS": 8.189, "Mtb growth Cornell": 5.917}
{"smiles": "Cc1cc(CC(C)NC(=O)c2n[nH]c3c2CCC3)n[nH]1", "stereo": "centres undefined", "Mtb heat-shock": -12.01, "LdMetRS": 14.41, "Mtb growth Cornell": 16.48}
{"smiles": "CC(C)NC(=O)Nc1ncc(-c2cccnc2)s1", "Mtb heat-shock": -15.62, "LdMetRS": 9.043, "Mtb growth Cornell": 7.348}
{"smiles": "CCC(C)N(Cc1cccnc1)C(=O)c1ccc(OC)cc1O", "stereo": "centres undefined", "Mtb heat-shock": -11.48, "LdMetRS": 11.26, "Mtb growth Cornell": 15.63}
{"smiles": "CN(C)S(=O)(=O)N1C[C@H]2CCC[C@@]2(COCc2cccnc2)C1", "LdMetRS": 16.79}
{"smiles": "COCCC1(CO)CCCN(Cc2ccncc2)C1", "stereo": "centres undefined", "Mtb heat-shock": 2.005, "LdMetRS": 14.78, "Mtb growth Cornell": 9.316}
{"smiles": "CCC(=O)c1ccc(OCC(=O)N2CCNCC2C(=O)NC2CC2)cc1", "stereo": "centres undefined", "Mtb heat-shock": 6.798, "LdMetRS": 7.94, "Mtb growth Cornell": 0.8756}
{"smiles": "Cc1cnc(CN2CCN(c3ccnc(-c4ccccc4)n3)CC2)cn1", "Mtb heat-shock": -5.766, "LdMetRS": 15.59, "Mtb growth Cornell": 14.18}
{"smiles": "O=C(c1cnccn1)N1C[C@@H]2CC[C@H](C1)N(C(=O)CCc1ccsc1)C2", "LdMetRS": 12.04}
{"smiles": "CCc1cnc2c(c1NCc1cccc(OC)c1)c(=O)n(C)c(=O)n2C", "Mtb heat-shock": -6.058, "LdMetRS": 7.843, "Mtb growth Cornell": -17.77}
{"smiles": "CN(C)CCNC(=O)c1ccccc1NC(=O)c1cc(Cl)ccc1Cl", "Mtb heat-shock": -18.18, "LdMetRS": 9.686, "Mtb growth Cornell": 0.6146}
{"smiles": "Cc1cc(-c2cnn(CCNC(=O)c3cnn(C)c3)c2C2CC2)on1", "Mtb heat-shock": -6.591, "LdMetRS": 11.3, "Mtb growth Cornell": -16.81}
{"smiles": "CCC(NC(=O)c1cc(CC(C)C)nn1C)c1cc(C)ccn1", "stereo": "centres undefined", "Mtb heat-shock": -5.649, "LdMetRS": 4.11, "Mtb growth Cornell": -2.989}
{"smiles": "CNC(=O)c1cccc(CCNc2ccccn2)c1", "Mtb heat-shock": -7.035, "LdMetRS": 2.375, "Mtb growth Cornell": 26}
{"smiles": "O=C(NCCc1ccncc1)c1ccc(N2CCOCC2)cc1", "Mtb heat-shock": 9.603, "LdMetRS": 10.56, "Mtb growth Cornell": 6.389}
{"smiles": "CC(=O)N1CCC(CCNC(C)c2cc(F)cc(F)c2)CC1", "stereo": "centres undefined", "Mtb heat-shock": -22.49, "LdMetRS": 2.419, "Mtb growth Cornell": -7.939}
{"smiles": "CC(C)Cc1noc(CNc2ccccc2CC(=O)N(C)C)n1", "Mtb heat-shock": 5.721, "LdMetRS": -0.2545, "Mtb growth Cornell": 29.2}
{"smiles": "Cn1cc(NC(=O)N2CCCC2c2cccnc2)ccc1=O", "stereo": "centres undefined", "Mtb heat-shock": -11.01, "LdMetRS": 9.322, "Mtb growth Cornell": -33.58}
{"smiles": "O=C1N(Cc2ccc(F)c(F)c2)CCCC12CCN(C1CCSCC1)C2", "stereo": "centres undefined", "Mtb heat-shock": 39.79, "LdMetRS": 28.29, "Mtb growth Cornell": 12.08}

3 of the entries, repeated:

| SMILES | Mtb heat-shock | LdMetRS | Mtb growth Cornell |
|---|---|---|---|
| `Cc1cc(-c2cnn(CCNC(=O)c3cnn(C)c3)c2C2CC2)on1` | -6.591% | 11.3% | -16.81% |
| `CN(CCC1CCOCC1)C(=O)C1CCC(=O)N(Cc2ccccn2)C1` (centres undefined) | -26.49% | -0.3436% | - |
| `Cc1cc(CC(C)NC(=O)c2n[nH]c3c2CCC3)n[nH]1` (centres undefined) | -12.01% | 14.41% | 16.48% |